## Results of single-concentration screens

From ChEMBL document CHEMBL3988442, “University of Dundee, Small-Polar-MMV Screening Library” (2021).

Each number is a percent effect as filed. How 0% and 100% were set is not recorded. Most values in the screen are low, and negative values occur. This is an unselected part of the compounds tested. Two or more numbers in one place are separate tests of the same structure; such repeats can differ widely.

Mtb glucose medium: 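Phenotypic screen: M. tuberculosis growth, glucose 7H9 medium, 3 days; the read-out is not stated. Tested at 50 µM. Direction is inferred from retests: higher values go with more growth inhibition. Size under these conditions: about 69,000 compounds, about 760 of them at 50% or above in at least one test.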
Mtb cholesterol medium: 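Phenotypic screen: M. tuberculosis growth, cholesterol and DPPC medium, 4 days; the read-out is not stated. Tested at 50 µM. Higher reads as more growth inhibition (inferred: compounds with an IC50 in retests scored well above the rest). Of about 69,000 compounds tested this way, about 370 (0.54%) reached 50% or more in at least one test.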

COCCC(=O)N1CCCC1c1nc(O)cc(-c2ccccn2)n1 (stereo unspecified) read Mtb glucose medium: 34.59%; Mtb cholesterol medium: 0.1475%.
COc1cccc(OCC2CCCN(Cc3ncc[nH]3)C2)c1 (stereo unspecified) read Mtb glucose medium: -11.33%; Mtb cholesterol medium: 1.139%.
[H][C@@]12CS(=O)(=O)C[C@]1([H])N(C(=O)c1cnccn1)CCN2CCC read Mtb glucose medium: -3.456%; Mtb cholesterol medium: -5.365%.
Cc1ccc(C(=O)NCCSCc2cccs2)cn1 read Mtb glucose medium: -12.48%; Mtb cholesterol medium: -29.43%.
Cn1cccc1C(=O)N1CCCN(CCCc2ccccc2)CC1 read Mtb glucose medium: 16.91%; Mtb cholesterol medium: -6.407%.
CCN(C(=O)CN1CCCC1c1cccs1)c1ccccc1C (stereo unspecified) read Mtb glucose medium: 58.44%; Mtb cholesterol medium: 9.215%.
Cc1c(F)cc(C(=O)O)cc1S(=O)(=O)Nc1ccc(C#N)cc1 read Mtb glucose medium: -36.07%; Mtb cholesterol medium: -15.94%.
Cc1ncsc1CN(Cc1ccccc1)Cc1ncc[nH]1 read Mtb glucose medium: 22.99%; Mtb cholesterol medium: -49.58%.
CCC(=O)Nc1nnc2n(Cc3cccc(OC)c3)[nH]c(C)c1-2 read Mtb glucose medium: 19.7% & 111.3%; Mtb cholesterol medium: 25.81%.
Cc1cc(CN2CCN(Cc3cnc4c(c3)c(C)nn4C)CC2)on1 read Mtb glucose medium: -8.946%; Mtb cholesterol medium: -5.021%.
CC(C)COCC(NC(=O)CSc1nnc[nH]1)c1ccco1 (stereo unspecified) read Mtb glucose medium: 14.38%; Mtb cholesterol medium: 0.9036%.
OC(COc1ccc(F)cc1)CN1CCC(c2ccn[nH]2)CC1 (stereo unspecified) read Mtb glucose medium: -29.35%; Mtb cholesterol medium: -15.53%.
O=C1CC(c2ccc(C(=O)O)cc2)c2ncn(-c3cccc(F)c3)c2N1 (stereo unspecified) read Mtb glucose medium: -14.65%; Mtb cholesterol medium: -3.704%.
CC(C)c1nnc2n1CCN(C(=O)c1cc(Cl)c[nH]1)C2 read Mtb glucose medium: -7.565%; Mtb cholesterol medium: -7.089%.
Cc1cccc(CN2CCn3c(COc4ncccn4)nnc3C2)n1 read Mtb glucose medium: -23.42%; Mtb cholesterol medium: -24.64%.
Cc1nccc(NCc2cc3n(n2)CCCN(S(C)(=O)=O)C3)n1 read Mtb glucose medium: 14.22%; Mtb cholesterol medium: 12.9%.
COCCCNc1nc(CNC(C)=O)cc(-c2ccco2)n1 read Mtb glucose medium: -1.072%; Mtb cholesterol medium: -3.689%.
CC(C)(C)c1nnc(CN(Cc2cccs2)CC2CCCO2)o1 (stereo unspecified) read Mtb glucose medium: 7.506%; Mtb cholesterol medium: 0.2707%.
O=C(C1NCCc2[nH]cnc21)N1CCC2(CC1)CNc1ccccc12 (stereo unspecified) read Mtb glucose medium: 13.55%; Mtb cholesterol medium: 20.55%.
Cc1cc(NC(=O)N(C)CCN2CCN(c3ccccc3)CC2)on1 read Mtb glucose medium: -16.62% & -0.5809%; Mtb cholesterol medium: 4.214%.
O=C1CC(c2ccc3c(c2)OCO3)c2cnn(C3CCCC3)c2N1 (stereo unspecified) read Mtb glucose medium: -8.875%; Mtb cholesterol medium: 13.9%.
NC(=O)C1CCN(c2cncc(-n3cccn3)n2)CC1 read Mtb glucose medium: -56.98% & -9.841%; Mtb cholesterol medium: -30.15%.
CCOC(C)c1nc(CN2CCN(c3nccc(C)n3)CC2)cs1 (stereo unspecified) read Mtb glucose medium: 12.21%; Mtb cholesterol medium: 35.47%.
CC(=O)N(Cc1ncc(C)o1)C1CCN(Cc2sc(C)nc2C)C1 (stereo unspecified) read Mtb glucose medium: -2.924%; Mtb cholesterol medium: -3.815%.
CCOc1cc(CNc2nnn(C)n2)ccc1OCc1ccc(Cl)cc1 read Mtb glucose medium: 36.54%; Mtb cholesterol medium: 12.78%.